Assay results taken from US20180303898A1 (SANFORD BURNHAM PREBYS MEDICAL DISCOVERY INSTITUTE, published 2018).
These are yes or no findings as the source states them, for the method shown. Some entries that bind do so weakly or less than the wild type.

T1: recombinant 6x-His-tagged p32 protein (p32/p33/gC1qR/HABP1) (UniProt Q07021 74-282)
T1 construct: not shown: 6x-His tag
T1 sequence (looked up): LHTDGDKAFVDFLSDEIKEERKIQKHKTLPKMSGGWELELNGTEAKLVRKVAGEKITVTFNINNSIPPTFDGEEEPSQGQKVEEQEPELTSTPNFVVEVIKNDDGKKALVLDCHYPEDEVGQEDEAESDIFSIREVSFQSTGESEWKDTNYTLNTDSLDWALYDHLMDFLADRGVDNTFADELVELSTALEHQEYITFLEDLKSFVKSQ


What was measured:
[1] = molecular target: T1, recombinant 6x-His-tagged p32 protein …; assay: fluorescence polarization displacement of FAM-TT1 from p32
[2] = molecular target: T1, recombinant 6x-His-tagged p32 protein …; assay: 1D 1H NMR, 5 µM p32
[3] = molecular target: T1, recombinant 6x-His-tagged p32 protein …; assay: 1D 1H NMR, 5 µM p32, TT1 at 70 µM; shift of the peak at around -0.3 ppm and a shoulder peak

Row | Binder | binding [1] | binding [2] | binding [3]
1 | CGNKRTRGC (cyclic 9-amino acid peptide) [LyP-1 peptide (…), unlabeled] | binds | – | –
2 | CKRGARSTC (9-amino acid cyclic peptide) [TT1 peptide (…), unlabeled] | binds | binds | binds
